Source: article PMC10015339

Assays:
GST-SlMYB72 [1] = assay: EMSA; conditions: LightShift chemiluminescent EMSA kit; 6% polyacrylamide gel; pH and temperature not given (refers to ref. 37); recombinant protein; protein details: GST (N-terminal, pGEX-4T-1); label: biotin
GST = assay: EMSA; conditions: GST-only control; LightShift chemiluminescent EMSA kit; 6% polyacrylamide gel; pH and temperature not given (refers to ref. 37); recombinant protein; label: biotin
GST-SlMYB72 [2] = assay: competition with a labelled probe; conditions: unlabeled competitor abolished the shift of biotin-labeled N1; LightShift chemiluminescent EMSA kit; 6% polyacrylamide gel; pH and temperature not given (refers to ref. 37); recombinant protein; protein details: GST (N-terminal, pGEX-4T-1)

| Sequence | binding result (GST-SlMYB72 [1]) | binding result (GST) | binding result (GST-SlMYB72 [2]) |
| --- | --- | --- | --- |
| CATGGATAAAACTCGACCAACAAAATCTTGAGCTTA (double strand) [SlATG7 probe (AC-rich motif)] | binds | no binding | – |
| CATGGATAAAACTCGACCAACAAAATCTTGAGCTTA (double strand) [SlATG7 probe, unlabeled competitor] | – | – | binds |

For at least one entry, the source does not settle the construct or the ends of the probe. For part of these data: No signal at the amounts used counts as a negative.
